Test results taken from patent US11446269B2, “Methods of reducing or preventing oxidation of small dense LDL or membrane polyunsaturated fatty acids” (Amarin Pharmaceuticals Ireland Limited, priority 2014, dated 2022).
At least one structure is not confirmed: it was looked up by name or label, or the drawing left a doubt.

How the values were obtained:
[1] = X-ray diffraction of cholesterol domains in POPC/cholesterol model membranes, C/P 1.5:1 (Example 9); settings: drug-to-phospholipid mole ratio 1:30, C/P 1.5:1
Protocol: Multilamellar vesicles (MLVs) were prepared as binary mixtures that include palmitoyloleoylphosphatidylcholine (POPC) (1.0 mg total phospholipid per sample) and cholesterol at an elevated cholesterol-to-phospholipid (C/P) mole ratio of 1.5:1. […] Samples were shell-dried under nitrogen gas and placed under vacuum for 3 hours to remove residual solvent at room temperature. After desiccation, each sample was resuspended in saline buffer (0.5 mM HEPES, 154 mM NaCl, pH 7.3) to yield a final phospholipid concentration of 2.5 mg/mL. Lipid suspensions were then vortexed for 3 minutes at ambient temperature to form MLVs.
Briefly, a 100 μL aliquot of each MLV preparation (containing 250 μg MLV) was transferred to a Lucite® sedimentation cell fitted with an aluminum foil substrate designed to collect MLVs into a single membrane pellet upon centrifugation. […]
The d-space for any given membrane multi bilayer is a measurement of the unit cell periodicity of the membrane lipid bilayer (e.g., the distance from the center of one lipid bilayer to the next including surface hydration), and is calculated from Bragg's Law, hλ=2d sin θ, where h is the diffraction order, λ is the wavelength of the x-ray radiation (1.54 Å), d is the membrane lipid bilayer unit cell periodicity, and θ is the Bragg angle equal to one-half the angle between the incident beam and scattered beam. […]

unfractionated LDL = experiment: Copper-induced oxidation of unfractionated LDL, TBARS (Example 7); assay type: biochemical, human; settings: 10 μM, 1 hr, vs vehicle-treated controls
Protocol: (§1) An experiment to study the antioxidant effect of EPA in LDL and small dense […] performed. […] Fenofibrate, gemfibrozil, and niacin were purchased from Sigma-Aldrich. […] Vitamin E was also incubated with sample aliquots as a positive control.

human sdLDL = experiment: Copper-induced sdLDL oxidation, TBARS (Example 7); assay type: biochemical; settings: 10 μM, 1 hr, vs vehicle-treated controls
Protocol: as §1

SMILES	effect on cholesterol domains [1]	effect on unfractionated LDL oxidation (unfractionated LDL)	effect on sdLDL oxidation (human sdLDL)
CC/C=C\C/C=C\C/C=C\C/C=C\C/C=C\C/C=C\CCC(=O)O [DHA, docosahexaenoic acid]	did not reduce cholesterol domains		
CC(C)OC(=O)C(C)(C)Oc1ccc(C(=O)c2ccc(Cl)cc2)cc1 [Fenofibrate, fenofibrate]		no significant effect	no significant effect
CC/C=C\C/C=C\C/C=C\C/C=C\C/C=C\CCCCCC(=O)O [DPA, docosapentaenoic acid]	did not reduce domains		
